# Results from paper PMC11898703.
# Amino acid sequences for entries named in this document (tags omitted).
# UniProt Q18CX4: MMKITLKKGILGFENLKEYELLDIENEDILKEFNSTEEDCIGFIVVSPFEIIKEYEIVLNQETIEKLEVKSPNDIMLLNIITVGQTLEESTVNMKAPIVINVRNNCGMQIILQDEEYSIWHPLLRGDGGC
# UniProt Q18CX3: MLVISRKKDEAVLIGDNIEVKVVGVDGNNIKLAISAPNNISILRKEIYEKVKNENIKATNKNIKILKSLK
# No constants are given. Whether binding was seen depends on the method and setting. Some binding calls cover weakened binding; strength is not graded here.
# Molecular target: FliW-T25 (Clostridioides difficile) (UniProt Q18CX4)
# Assay: two-hybrid; bacterial two-hybrid (BACTH) in E. coli BTH101; T25 and T18 fusions co-transformed; cultures dotted on LB-X-Gal-IPTG indicator plates, blue colonies positive, white colonies no interaction
substance,measurement,value
CsrA-T18 (from UniProt Q18CX3 1-70),binding,binds
